Screening data, single-dose tests

By UniProt entry, the sequences of proteins in these tests, tags left out. Residues count along the entry.
UniProt Q4DA54, 1-478: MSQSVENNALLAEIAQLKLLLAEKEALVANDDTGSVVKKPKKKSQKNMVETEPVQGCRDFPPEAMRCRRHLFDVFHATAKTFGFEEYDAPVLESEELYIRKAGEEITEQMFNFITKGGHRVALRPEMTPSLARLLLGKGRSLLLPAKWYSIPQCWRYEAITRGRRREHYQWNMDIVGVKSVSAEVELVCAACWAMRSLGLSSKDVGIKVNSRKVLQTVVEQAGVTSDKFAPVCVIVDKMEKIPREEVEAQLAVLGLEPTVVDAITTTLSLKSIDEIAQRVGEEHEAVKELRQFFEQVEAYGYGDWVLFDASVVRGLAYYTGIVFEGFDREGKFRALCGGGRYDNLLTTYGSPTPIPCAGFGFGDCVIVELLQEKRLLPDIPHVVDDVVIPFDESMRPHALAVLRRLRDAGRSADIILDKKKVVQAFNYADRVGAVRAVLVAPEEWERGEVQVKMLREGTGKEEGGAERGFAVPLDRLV
UniProt P9WPC5, whole entry: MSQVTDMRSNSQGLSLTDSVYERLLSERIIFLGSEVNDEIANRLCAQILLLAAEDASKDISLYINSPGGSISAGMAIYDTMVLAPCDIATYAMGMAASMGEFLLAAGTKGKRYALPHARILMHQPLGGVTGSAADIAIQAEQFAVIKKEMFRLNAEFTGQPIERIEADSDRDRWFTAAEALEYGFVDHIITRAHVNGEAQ
UniProt P9WPC3, whole entry partner: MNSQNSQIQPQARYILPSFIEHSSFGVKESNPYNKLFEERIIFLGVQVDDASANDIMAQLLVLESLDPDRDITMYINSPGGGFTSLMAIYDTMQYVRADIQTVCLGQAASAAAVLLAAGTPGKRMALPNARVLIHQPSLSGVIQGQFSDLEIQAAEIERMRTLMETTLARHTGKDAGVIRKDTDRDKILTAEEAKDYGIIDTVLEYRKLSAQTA
UniProt Q8IDJ8, 1-583: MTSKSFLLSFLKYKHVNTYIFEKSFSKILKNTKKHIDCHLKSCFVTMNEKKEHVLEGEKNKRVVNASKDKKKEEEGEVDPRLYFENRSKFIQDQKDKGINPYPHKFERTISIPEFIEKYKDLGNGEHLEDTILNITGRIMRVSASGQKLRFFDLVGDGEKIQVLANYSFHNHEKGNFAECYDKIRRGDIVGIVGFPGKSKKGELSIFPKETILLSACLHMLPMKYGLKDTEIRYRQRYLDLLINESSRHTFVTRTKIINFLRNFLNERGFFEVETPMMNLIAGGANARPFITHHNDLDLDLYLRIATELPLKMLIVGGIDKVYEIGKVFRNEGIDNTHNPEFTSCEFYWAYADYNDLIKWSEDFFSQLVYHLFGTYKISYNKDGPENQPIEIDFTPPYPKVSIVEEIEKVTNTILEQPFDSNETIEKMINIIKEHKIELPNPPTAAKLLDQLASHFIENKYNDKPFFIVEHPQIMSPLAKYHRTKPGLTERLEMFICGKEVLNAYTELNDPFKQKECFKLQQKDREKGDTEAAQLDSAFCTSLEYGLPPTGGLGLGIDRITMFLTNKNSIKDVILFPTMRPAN

Measurements from “University of Dundee, Small-Polar-MMV Screening Library” (2021), ChEMBL document CHEMBL3988442.

The filed quantity is “Percent Effect” (%).
The record does not define 0% and 100%; most values in the screen are far below 50% and negative numbers occur (in some assays of this library far below -100).
The compounds are a random part of those screened.
A dash means the value is not listed here; it may have been measured.

Leishmania in macrophages: 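Cell assay of Leishmania donovani living inside macrophages; the read-out is not stated. Concentration: 30 µM. Direction is inferred from retests: higher values go with stronger inhibition. Size under these conditions: about 69,000 compounds, about 1,000 of them at 50% or above in at least one test.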
TcHisRS: 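Histidine-tRNA ligase, Trypanosoma cruzi CL Brener (UniProt Q4DA54). Enzyme assay of histidyl-tRNA synthetase; the read-out is not stated. Compounds at 30 µM. Higher reads as stronger inhibition (inferred: compounds with an IC50 in retests scored well above the rest). Of about 69,000 compounds tested this way, about 31 (0.045%) reached 50% or more in at least one test.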
ClpP1P2: 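Protease assay of ClpP1P2, read by the AMC dye that it sets free. Target: ClpP1P2, Mycobacterium tuberculosis (UniProt P9WPC5 and UniProt P9WPC3). Tested at 50 µM. Higher reads as stronger inhibition, judged from the few compounds that gave an IC50. Most other retested compounds had strongly negative values. About 69,000 compounds were tested under these conditions; 0.015% (about 10) showed 50% or more at least once.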
Toxoplasma: 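Assay of Toxoplasma gondii numbers, read through their beta-galactosidase reporter with a colour substrate. Compounds at 10 µM. Higher reads as fewer parasites (inferred from which compounds were picked for retests). Size under these conditions: about 67,000 compounds, about 260 of them at 50% or above in at least one test.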
PfKRS1: 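Enzyme assay of the cytosolic lysyl-tRNA synthetase in 384-well plates, read by luminescence. Target: Lysine-tRNA ligase, Plasmodium falciparum 3D7 (UniProt Q8IDJ8). Compounds at 30 µM. Higher reads as stronger inhibition, judged from the few compounds that gave an IC50. Of about 69,000 compounds tested this way, about 49 (0.071%) reached 50% or more in at least one test.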

Compound	Leishmania in macrophages	TcHisRS	ClpP1P2	Toxoplasma	PfKRS1
CNC(=O)[C@@H](C1CCCCC1)N1CCC[C@H]1C(=O)NCCN1CCCC1.Cl.Cl	-14.99%	-	-	-1.982%	-
O=S(=O)(c1ccccc1)N1C[C@@H]2COC[C@]2(COCC2CC2)C1	-	-3.226%	-0.6118%	-	2.475%
Cn1cc(CC2CCN(C(=O)NCCc3cccc(O)c3)C2)cn1 (configuration not stated)	-2.404%	-1.087%	-7.638%	1.961%	2.774%
O=C1N[C@@H]2CCN(C(=O)C3CC3)[C@@H]2C(=O)N1c1ccc(F)cc1	-	3.96%	-5.198%	-	6.005%
COc1c(C2CCCN2c2ncnc3ccsc23)c(C)nn1C (configuration not stated)	28.25%	0.5348%	3.038%	1.685%	3.629%
COc1ccc(-c2cc3nn(CC(N)=O)c(=O)n3c(C)n2)cc1	19.82%	12%	-15.27%	8.651%	2.675%
O=C1COc2cc(S(=O)(=O)NCCC3=CCCCC3)c(Cl)cc2N1	44.55%	0%	-3.377%	17.92%	-0.2987%
Cc1ccc(NS(C)(=O)=O)c(C(=O)NCCC(=O)NC(C)C)c1	32.07%	8.287%	7.22%	-4.097%	3.551%
Cc1cnc(CN(C)C2CCN(Cc3nc4ccccc4o3)C2)o1 (configuration not stated)	8.725%	9.04%	-38.24%	-2.912%	-0.3286%
COc1ccc(Br)cc1CCC(=O)N1CCSCC1	-10%	-1.657%	-4.11%	7.739%	-0.5104%
O=C(O)C(F)(F)F.[H][C@]12CCN(c3cccnc3)C[C@@]1([H])CN(CC1CC1)C2	32.79%	-	-	10.74%	-
CCc1nccn1CC(=O)Nc1cccc(C(=O)N(C)C)c1	35.17%	11.88%	17.01%	4.806%	1.281%
COCCN1CCC2(CC1)CN(C(=O)c1cccs1)CCO2.O=C(O)C(F)(F)F	0.8159%	-	-	14.16%	-
CC(=O)N1CCN(Cc2ccc(OCc3nccn3C)cc2)CC1	21.21%	4.598%	6.15%	-0.2032%	-1.111%
Cc1nccn1CC1CCCN1S(=O)(=O)Cc1cccc(F)c1 (configuration not stated)	-27.12%	4.035%	-4.812%	-7.844%	0.1828%
[H][C@]12CCN(C(=O)c3ccoc3)[C@@]1([H])CC[C@@H](COCc1ccccn1)O2	-20.77%	-	-	-0.05379%	-
CC(=O)c1ccc(Cl)c(Cl)c1OCC(=O)NCC(F)(F)F	-10.67%	10.34%	2.222%	-0.05348%	4.584%
CSCc1nc(CNC(=O)C2CCCN(C(=O)N(C)C)C2)cs1 (configuration not stated)	22.69%	4.865%	3.386%	9.238%	5.468%
Cc1cc(C)n(CC(=O)N2CCCCC2CCN(C)C)c(=O)n1 (configuration not stated)	2.306%	6.061%	7.147%	0.5445%	6.899%
Cc1nc(CN2CCO[C@@H]3CN(C(=O)CN(C)C)CC[C@@H]3C2)cs1	-	12.4%	7.99%	-	6.402%
O=C(O)c1cccc(C2CCCN(S(=O)(=O)C3CC3)C2)c1 (configuration not stated)	-7.03%	0%	7.423%	5.391%	5.261%
CC(=O)N1CCCC2(CCC(=O)N2Cc2cccnc2)C1.O=C(O)C(F)(F)F (configuration not stated)	11.56%	-	-	12.46%	-
CCCOc1cc(C)c2c(c1C)C[C@H]([C@H](C)C(=O)O)CC2	-	3.483%	-0.1628%	-	-0.2724%
Cc1cncc(C(=O)N2CCNCC2C(=O)NCc2ccncc2)c1 (configuration not stated)	1.3%	3.784%	-11.76%	6.338%	4.796%
Cc1ccc(N2C[C@H](O)[C@@H](N3CCN(c4ccccn4)CC3)C2)nn1	-9.349%	4.663%	0.879%	12.89%	8.714%
CO[C@H]1CC[C@H]2[C@H]1OCCN2Cc1ccc(F)cc1	-	0.9524%	-1.5%	-	-1.462%
COCC1CC2(CCN(C(=O)c3cncc(C)c3)CC2)CO1.O=C(O)C(F)(F)F (configuration not stated)	-3.197%	-	-	-6.817%	-
CCC1CN(c2ncnc3nc[nH]c23)CCO1 (configuration not stated)	6.549%	6.211%	-9.962%	-24.36%	8.97%
Cc1cc(CN[C@@H](C)C(N)=O)c(C)s1	25.12%	0.5405%	-14.99%	7.611%	5.995%
Cc1oc(C)c(C(=O)N2CCCN(Cc3cscn3)CC2)c1C	-12.2%	3.396%	-2.54%	-7.029%	4.019%
CC(=O)Nc1ccc(SCCCC(=O)NCC2CCCO2)nn1 (configuration not stated)	-24.08%	4.848%	-13.04%	-17.34%	4.261%
CCCc1cc(C(=O)NC(c2ccccc2)c2n[nH]c(C)n2)[nH]n1 (configuration not stated)	-7.704%	9.524%	-11.73%	-11.57%	3.589%
O=C(c1ccc[nH]1)N1CCOCC2(C1)CN(c1ccccc1)C(=O)CO2 (configuration not stated)	3.774%	-142.9%	-21.11%	4.832%	-1.085%
Cc1c(-c2cc(C(F)F)nc3sc(C(N)=O)c(N)c23)cnn1C	16.2%	-46.88%	-26.51%	-29.93%	5.044%
CCN(Cc1nonc1C)C(=O)c1cnccn1	-9.299%	2.646%	2.256%	-1.704%	2.473%
Cc1ccc(CC(=O)NCC(O)c2ccc(Cl)cc2Cl)cn1 (configuration not stated)	-16.89%	8.28%	3.14%	3.128%	-4.308%
Cc1ccc(C(=O)N2C[C@H]3CCC[C@@]3(COCc3cccnc3)C2)s1	-	4.918%	0.7033%	-	7.409%
O=C(C1CCOC1)N1C[C@H]2CN(c3ccccc3)C(=O)[C@H]2C1 (some centres not stated)	-	3.261%	0.9065%	-	0.2706%
CN(C)C(=O)c1cn2cc(-c3cccc(Cl)c3)n(CC3CC3)c(=O)c2n1	29.56%	8.8%	-2.331%	-38.25%	3.306%
CCC1CCCN(Cc2nc(N)c3ccccc3n2)C1 (configuration not stated)	43.84%	6.122%	-15.96%	7.36%	-0.2681%
O=C(O)C(F)(F)F.[H][C@@]12CCN(C3CCCCC3)[C@]1([H])CC[C@H](C(=O)N1CCOCC1)O2	21.23%	-	-	1.475%	-
Cn1cc(-c2cnc(N3CCOCC3)nc2)cc1C(=O)N1CCCC1	13.22%	3.659%	-10.87%	4.698%	3.354%
Cc1c(C(=O)N2CCC(C(O)c3ccc(Cl)cc3)CC2)cnn1C (configuration not stated)	7.918%	2.381%	-15.09%	-2.382%	-2.434%
N#Cc1ccc(OCCN2CCNC(=O)C2c2cccs2)cc1 (configuration not stated)	-7.358%	6.736%	-15.54%	1.919%	5.051%
Cn1cc(C(=O)N2CCCC(c3ncc[nH]3)C2)cn1 (configuration not stated)	12.41%	5.844%	-5.026%	-31.85%	6.619%
CC(C)OCc1ncn2c1CN(Cc1nccs1)CCC2.O=C(O)C(F)(F)F	30.13%	-	-	-13.04%	-
CC(C)c1nnc(CNc2ccc(SC(F)(F)F)cc2)o1	-14.67%	1.935%	4.124%	-26.08%	0.1097%
CC(C)(C)c1n[nH]cc1CN1CCc2nc3ccsc3c(=O)n2CC1	11.42%	0.5405%	16.76%	5.189%	3.123%
O=C(O)c1ccccc1-n1cnc(CN2CCc3ccccc3C2)c1	-39.24%	0.7752%	4.73%	-18.87%	1.101%
COc1ccc(CNc2cc(-c3nc(C)no3)ccn2)c(OC)c1	4.177%	10.78%	-9.223%	8.578%	0.01264%
[H][C@@]12CCCO[C@]1([H])[C@H](OCc1cccnc1)CN2C(=O)c1ccncc1	21.65%	-	-	10.88%	-
CC(CNC(=O)c1c[nH]nn1)Oc1cccc(Br)c1 (configuration not stated)	-81.89%	3.093%	-11.88%	-11.39%	4.395%
COc1cc(N2C[C@@H]3COC[C@]3(COc3ccccn3)C2)ncn1	-	0.9524%	-19.39%	-	-4.222%
CN(C)C(C(=O)N1CCCC1)c1ccccc1F (configuration not stated)	-13.69%	4.878%	-11.83%	-4.013%	7%
O=C(NCc1ccc(F)cc1)N1CCC(C2OCCO2)CC1	2.434%	2.174%	5.219%	2.162%	2.426%
O=C(c1ncccn1)N1C[C@@H]2CN(CC3CC3)CCO[C@@H]2C1	-	0.9804%	5.318%	-	5.714%
Cc1cc(C(=O)NC2CCN(c3ncccc3C#N)CC2)on1	20.88%	12.5%	-2.846%	-5.352%	5.26%
CN(C)c1ncc(I)c(C2CCCCN2S(C)(=O)=O)n1 (configuration not stated)	5.221%	7.28%	-0.9933%	4.357%	-0.6097%
COc1c[nH]c(C(=O)N2CCN(c3cccc(Cl)c3)CC2)cc1=O	-3.865%	8.247%	-18.05%	-2.276%	1.813%
O=S(=O)(c1ccc(F)c(F)c1)n1cc(Cl)cn1	5.265%	0.9901%	-12.5%	-11.06%	-0.4258%
CC(CNCC1(S(C)(=O)=O)CCOCC1)c1ccc(F)cc1 (configuration not stated)	16.3%	1.478%	10.71%	-3.308%	7.637%

Some entries from above, unchanged:

Compound	Leishmania in macrophages	TcHisRS	ClpP1P2	Toxoplasma	PfKRS1
COCCN1CCC2(CC1)CN(C(=O)c1cccs1)CCO2.O=C(O)C(F)(F)F	0.8159%	-	-	14.16%	-
CC(C)c1nnc(CNc2ccc(SC(F)(F)F)cc2)o1	-14.67%	1.935%	4.124%	-26.08%	0.1097%
[H][C@]12CCN(C(=O)c3ccoc3)[C@@]1([H])CC[C@@H](COCc1ccccn1)O2	-20.77%	-	-	-0.05379%	-
Cc1cc(C(=O)NC2CCN(c3ncccc3C#N)CC2)on1	20.88%	12.5%	-2.846%	-5.352%	5.26%
Cc1cnc(CN(C)C2CCN(Cc3nc4ccccc4o3)C2)o1 (configuration not stated)	8.725%	9.04%	-38.24%	-2.912%	-0.3286%